# Assay results reported in US11698357B2, “Method for screening, isolating and purifying analytes” (CHANG GUNG UNIVERSITY, priority 2019, dated 2023).
# System: MES-SA cells
# Test: ODEP manipulation: maximum velocity of moving light bar that can manipulate drug-treated cells
# Format: cell-based, human
# From the text: For the electric conditions, the magnitude and frequency of the ODEP were set at 10 V and 2 MHz, which can reduce cell aggregation and accelerate cell sorting and isolation, as shown in FIG. 2A. In addition, the ODEP manipulation force, a net force between the ODEP force and friction force, generated on the manipulated cells (i.e., the live and dead cancer cells with and without drug resistance) was then experimentally evaluated. Briefly, in a steady state, the ODEP manipulation force on a cell is balanced by the viscous drag of the surrounding fluid. […]
# Therefore, according to Stokes' law, the ODEP manipulation force generated on the cells can then be experimentally evaluated through measurements of the maximum velocity of a moving light bar that can manipulate these cells (i.e., live and dead MES-SA cells and Dx5 cells). […] After the live MES-SA and Dx5 cells were treated with 5.0 μg ml^−1 doxorubicin for 48 hours, the maximum velocity of the moving light bar that can manipulate live Dx5 cells was measured to be 206.7±41.0 μm s^−1, showing no significant difference (p>0.05) with that of the MES-SA and Dx5 cells before drug treatment. […]
smiles,measurement,setting,value
COc1cccc2c1C(=O)c1c(O)c3c(c(O)c1C2=O)C[C@@](O)(C(=O)CO)C[C@@H]3O[C@H]1C[C@H](N)[C@H](O)[C@H](C)O1 [doxorubicin],maximum velocity of the moving light bar that can manipulate cells,"drug-treated dead MES-SA cells, 5.0 μg ml^−1 doxorubicin for 48 hours",20.6±6.8 μm s^−1
same,maximum velocity of the moving light bar that can manipulate cells,"live MES-SA cells after 5.0 μg ml^−1 doxorubicin for 48 hours, 10 V, 2 MHz",78.3±54.4 μm s^−1
